Experimental findings from article PMC4089482, “Bacterial periplasmic sialic acid-binding proteins exhibit a conserved binding site” (Acta Crystallographica Section D: Biological Crystallography, 2014) are described below.

Protein sequences, listed by entry. Tags and fused reporters are not part of them. Residues count along the entry.
UniProt Q9KR64, residues 23-321: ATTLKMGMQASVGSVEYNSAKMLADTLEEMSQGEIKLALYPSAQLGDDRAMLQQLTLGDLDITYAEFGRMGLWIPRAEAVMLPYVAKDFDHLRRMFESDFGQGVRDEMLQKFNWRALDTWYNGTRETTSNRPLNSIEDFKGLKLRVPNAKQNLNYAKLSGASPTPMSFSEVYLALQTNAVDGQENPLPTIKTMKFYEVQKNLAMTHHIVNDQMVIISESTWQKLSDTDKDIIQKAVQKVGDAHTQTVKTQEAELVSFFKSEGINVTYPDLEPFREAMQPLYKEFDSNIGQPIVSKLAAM

This experiment concerns the target Vibrio cholerae sialic acid-binding periplasmic protein SiaP (Vc-SiaP) (V. cholerae) (UniProt Q9KR64). In words: SEC; both purified.

No constants are given. Whether binding was seen depends on the method and setting.

In the case of “Vibrio cholerae sialic acid-binding periplasmic protein SiaP (Vc-SiaP) (from UniProt Q9KR64 23-321)”, the binding entry is “no binding”.
